This experiment has as its target truncated 1-deoxy-D-xylulose-5-phosphate synthase from Pseudomonas aeruginosa (ΔpaDXPS) (Pseudomonas aeruginosa) (UniProt Q9KGU7). The experiment can be described thus: crystal structure.

The chains behind the UniProt entries cited, without tags or fusion partners. Where a name states a change or a piece, a line headed by the entry shows the natural chain unless it says otherwise.
UniProt Q9KGU7, whole entry, looked up, stated change not applied: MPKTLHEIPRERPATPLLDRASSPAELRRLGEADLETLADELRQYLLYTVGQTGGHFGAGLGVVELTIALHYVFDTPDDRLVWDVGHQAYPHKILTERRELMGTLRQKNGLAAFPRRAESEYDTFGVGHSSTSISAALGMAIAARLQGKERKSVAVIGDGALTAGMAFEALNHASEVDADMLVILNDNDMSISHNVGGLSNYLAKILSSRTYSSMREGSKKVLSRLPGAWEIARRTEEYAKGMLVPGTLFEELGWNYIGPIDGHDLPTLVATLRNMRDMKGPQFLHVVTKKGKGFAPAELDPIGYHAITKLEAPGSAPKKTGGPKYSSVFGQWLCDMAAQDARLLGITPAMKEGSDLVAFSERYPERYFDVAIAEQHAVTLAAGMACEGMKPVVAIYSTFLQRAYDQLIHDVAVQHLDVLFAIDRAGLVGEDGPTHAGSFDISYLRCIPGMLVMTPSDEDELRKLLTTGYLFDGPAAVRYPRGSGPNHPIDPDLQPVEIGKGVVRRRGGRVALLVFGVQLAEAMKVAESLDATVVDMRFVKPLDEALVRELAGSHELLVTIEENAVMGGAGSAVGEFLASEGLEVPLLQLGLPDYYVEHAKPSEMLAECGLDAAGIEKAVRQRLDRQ

No constants are given. Whether binding was seen depends on the method and setting. Some binding calls cover weakened binding; strength is not graded here.

Turning to “truncated 1-deoxy-D-xylulose-5-phosphate synthase from Pseudomonas aeruginosa (ΔpaDXPS) (from UniProt Q9KGU7 1-205; Q9KGU7 246-627) (enzyme)”, the binding result was “binds”.
